# Experimental data taken from PubChem BioAssay AID2551 (National Center for Advancing Translational Sciences (NCATS), 2010).
# Chains of the proteins cited; added tags and fusions are not shown. Lines headed by an entry give the natural chain unless they say otherwise; changes in a name come on top.
# UniProt P51450: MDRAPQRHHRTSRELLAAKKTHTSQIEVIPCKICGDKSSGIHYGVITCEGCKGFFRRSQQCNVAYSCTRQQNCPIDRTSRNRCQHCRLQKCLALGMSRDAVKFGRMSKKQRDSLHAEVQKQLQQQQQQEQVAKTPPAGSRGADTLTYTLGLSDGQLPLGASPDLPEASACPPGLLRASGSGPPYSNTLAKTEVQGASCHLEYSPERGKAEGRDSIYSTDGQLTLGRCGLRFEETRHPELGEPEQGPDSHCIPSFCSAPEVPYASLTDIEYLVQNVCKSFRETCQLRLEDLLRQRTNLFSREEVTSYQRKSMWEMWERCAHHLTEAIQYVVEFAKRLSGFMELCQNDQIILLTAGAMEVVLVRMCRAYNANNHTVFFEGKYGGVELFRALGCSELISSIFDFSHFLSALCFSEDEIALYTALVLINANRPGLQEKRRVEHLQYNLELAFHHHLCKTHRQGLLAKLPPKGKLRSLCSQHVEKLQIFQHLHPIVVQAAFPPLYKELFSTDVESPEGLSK
# Several values for one entry are separate records, joined by “and”; a condition that tells them apart may be missing. Equal entries are not always repeated. Hit rate of the full screen: of about 310,000 compounds, about 17,000 (5.5%) were called active. Inconclusive results, whose numbers are uncertain, are shown with a selection of clear calls. The call rests on the fitted dose curve; in most records, active means well fitted inhibition curve with a large enough effect; inconclusive means small, poorly fitted or top-dose-only effect, or effect the other way; inactive means no such curve, though single readings can be large or run the other way. Where the call is inconclusive, the potency comes from a doubtful curve fit.
# Molecular target: Nuclear receptor ROR-gamma (Mus musculus) (UniProt P51450)
# Experiment: qHTS for inhibitors of ROR gamma transcriptional activity; further: nearly all actives have a fitted effect of over 60% in size
# Details: Drosophila S2 Gal4-RORgamma UAS-luciferase reporter, 20 h; activity change, negative = inhibition: at 53.6 µM (top of the series)
# How it was run: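 Drosophila Schneider cells stably carrying a metallothionein-driven Gal4 DBD–ROR gamma fusion and a UAS-Photinus luciferase reporter were exposed to compound for 1 hr, then induced with copper sulfate (700 uM final) for 20 hr at ambient temperature before luminescence reading.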
# On the % scale 0 is the no-effect control and ±100 the full control effect; potency means the concentration at half of the fitted maximal effect.
Compound,"activity change, negative = inhibition",Potency
CCCNC(=S)N1CCC(NC(=O)c2ccc(C)cc2)CC1,inactive: 2.45%,
CCCCSc1nnc(CCCCCNC(=O)OC(C)(C)C)o1,,"inconclusive: 15.8 µM [activator, single point]"
O=C(Nc1ccon1)c1ccc(Cl)s1,,"inconclusive: 5.62 µM [inhibitor, single point]"
CCOC(=O)c1cc(C#N)c(SCC(=O)O)[nH]c1=O,inactive: 7.49%,
O=C(O)Cn1cc(C(=S)N2CCCCC2)c2ccccc21,inactive: 4.92%,
O=C(Nc1nccs1)c1ccc(-c2ccc(Cl)cc2Cl)o1,,active: 3.55 µM
Cc1ccc(NC(=S)NCc2ccc(S(N)(=O)=O)cc2)c(C)c1,inactive: 19.1%,
CC1(C)CC(=O)c2c(n(-c3cccc4ccccc34)ccc2=O)C1,,"inconclusive: 7.08 µM [inhibitor, partial curve]"
CCCCCc1nnc(NC(=O)OCCC)s1,,"inconclusive: 25.1 µM [inhibitor, single point]"
COc1cc(/C=N/NC(=O)C2c3ccccc3Oc3ccccc32)ccc1O,,"inconclusive: 35.5 µM [inhibitor, single point]"
C/C(N[C@@H]1CSCC1O)=C1/C(=O)CC2[C@@H]1C2(C)C (stereo partly drawn),,"inconclusive: 11.2 µM [activator, single point]"
COC(=O)c1ccc(OCC(=O)c2ccc(C)c(C)c2)cc1,,"inconclusive: 15.8 µM [inhibitor, single point]"
Cc1ccc(S(=O)(=O)N2CCC(C(=O)N/N=C/c3ccccc3[N+](=O)[O-])CC2)cc1,,"inconclusive: 35.5 µM [activator, single point]"
O=C(c1ccc(Cl)cc1)C(CN1CCCCC1)c1ccccc1 (stereo not drawn),,"inconclusive: 15.8 µM [inhibitor, single point]"
COc1ccccc1NC(=O)c1[nH]c(C)c(C(C)=O)c1C,,"inconclusive: 0.794 µM [inhibitor, single point]"
COc1cccc2cc(C(=O)NCc3ccc(Cl)cc3)c(=N)oc12,,active: 0.0891 µM
O=S(=O)(c1cc(Cl)cc(Cl)c1)N1CCCC1c1nc2ccccc2s1 (stereo not drawn),,"inconclusive: 35.5 µM [activator, single point]"
O=C(Nc1ccccc1C(=O)NCc1ccccc1)c1ccccc1Br,,"inconclusive: 35.5 µM [activator, single point]"
O=C(NC12CC3CC(CC(C3)C1)C2)c1ccc(Br)o1,,"inconclusive: 20 µM [activator, single point]"
COc1cc2c(cc1OC)CN(C(=O)CCOc1ccccc1)CC2,inactive: -12%,
Cc1ccc(NC(=O)C(=Cc2ccc(C(=O)O)cc2)C(=O)Nc2ccc(C)cc2C)c(C)c1,,active: 15.8 µM
CCOc1cccc2sc(N(CCCN(C)C)C(=O)c3ccc(S(=O)(=O)N(C)c4ccccc4)cc3)nc12,,"inconclusive: 22.4 µM [inhibitor, single point]"
C[C@@H](C(=O)Nc1ccc2ccccc2c1)[C@H]1C[C@]1(C)[C@H](NC(=O)c1cnccn1)c1ccccc1,,"inconclusive: 35.5 µM [activator, single point] and inconclusive: 22.4 µM [activator, single point]"
CC1CN(C(=O)CSc2nnc(-c3ccncc3)n2-c2ccccc2)CC(C)O1 (stereo not drawn),inactive: -1.19%,

Compound,"activity change, negative = inhibition",Potency
Nc1sc2c(c1C(=O)NC1CCS(=O)(=O)C1)CCCC2 (stereo not drawn),,"inconclusive: 1.41 µM [activator, partial curve, poor fit]"
CCc1nnc(NC(=O)CSc2nnc(-c3ccccc3O)o2)s1,,active: 0.112 µM
N#Cc1nc(COc2ccc(Br)cc2)oc1N1CCCC1,,"inconclusive: 35.5 µM [activator, single point]"
CCOC(=O)/C(C#N)=C1\CCCN1CC(N)=S,,"inconclusive: 4.47 µM [activator, partial curve]"
Cc1ccccc1-n1c([C@@H]2C[C@H]2c2ccccc2)n[nH]c1=S,,active: 5.01 µM
CC(=O)c1ccc(N2CCN(Cc3nc(Cc4ccccc4)no3)CC2)cc1,,active: 3.55 µM
COC(=O)CNC(=O)C1CCN(S(=O)(=O)c2cccc3nsnc23)CC1,inactive: -0.968%,
Cn1c(=O)c2c(ncn2Cc2cc(-c3ccccc3)no2)n(C)c1=O,,"inconclusive: 31.6 µM [activator, single point]"
O=C(NCc1ccon1)C1CCC(=O)N(CCc2ccc(Cl)cc2)C1 (stereo not drawn),,"inconclusive: 6.31 µM [inhibitor, partial curve, poor fit]"
Cc1cccc(C(=O)NCC(=O)N2CCOCC2)c1,inactive: 26.5%,
O=C(CSc1cccc2cccnc12)Nc1ccc(S(=O)(=O)N2CCOCC2)cc1,,active: 5.62 µM
COc1ccc(Nc2cc(Nc3cccc(OC)c3)ncn2)cc1,inactive: 11.3%,
O=C(NN1C(=O)c2ccccc2NC12CCCCC2)c1ccccc1,,"inconclusive: 1.58 µM [activator, full curve, poor fit]"
CC1(C)N([O-])C2=C(CCCC2)[N+]1=O,inactive: -5.62%,
COc1cccc2cc(C(=O)NCc3ccco3)c(=Nc3ccc(C(=O)O)cc3)oc12,,"inconclusive: 0.1 µM [inhibitor, full curve]"
COc1cc2c(Nc3ccc(Br)cc3F)ncnc2cc1OCC1CCN(C)CC1,,"inconclusive: 35.5 µM [inhibitor, single point]"
Oc1c(Br)cc(Br)cc1C=NCc1ccccc1,,"inconclusive: 17.8 µM [inhibitor, single point]"
Cc1ccc(NC(=O)C(=S)NCc2ccco2)cc1,inactive: 1.07%,
Cc1cc(C(=O)Nc2ccc(N3CCCC3)c(Cl)c2)ccc1[N+](=O)[O-],,"inconclusive: 17.8 µM [activator, single point]"
Cc1ccsc1C(=O)OCC(=O)c1cc(C)n(CC2CCCO2)c1C (stereo not drawn),,active: 3.98 µM
c1ccc(CCNc2nc(-c3ccncc3)nc3ccccc23)cc1,,"inconclusive: 31.6 µM [activator, single point]"
CCCCn1c(-c2ccccc2)nnc1-c1ccccc1,inactive: -28%,
Cc1cc(C)c(S(=O)(=O)Nc2cnc3ccccc3c2)c(C)c1,inactive: 5.49%,
Cc1cccc(-n2nnc(C(=O)NC3CCCc4ccccc43)c2N)c1 (stereo not drawn),,"inconclusive: 3.16 µM [activator, full curve]"

# Exported with tabs: part of the list above
Compound	activity change, negative = inhibition	Potency
O=C(NN1C(=O)c2ccccc2NC12CCCCC2)c1ccccc1		inconclusive: 1.58 µM [activator, full curve, poor fit]
CC1(C)N([O-])C2=C(CCCC2)[N+]1=O	inactive: -5.62%	
COc1cccc2cc(C(=O)NCc3ccco3)c(=Nc3ccc(C(=O)O)cc3)oc12		inconclusive: 0.1 µM [inhibitor, full curve]
COc1cc2c(Nc3ccc(Br)cc3F)ncnc2cc1OCC1CCN(C)CC1		inconclusive: 35.5 µM [inhibitor, single point]
Oc1c(Br)cc(Br)cc1C=NCc1ccccc1		inconclusive: 17.8 µM [inhibitor, single point]
Cc1ccc(NC(=O)C(=S)NCc2ccco2)cc1	inactive: 1.07%	
Cc1cc(C(=O)Nc2ccc(N3CCCC3)c(Cl)c2)ccc1[N+](=O)[O-]		inconclusive: 17.8 µM [activator, single point]
Cc1ccsc1C(=O)OCC(=O)c1cc(C)n(CC2CCCO2)c1C (stereo not drawn)		active: 3.98 µM
c1ccc(CCNc2nc(-c3ccncc3)nc3ccccc23)cc1		inconclusive: 31.6 µM [activator, single point]
